# Assay results: patent US10113189B2, “Isolation and characterization of a novel pythium omega 3 desaturase with specificity to all omega 6 fatty acids longer than 18 carbon chains” (priority 2006, dated 2018)
# Test system: ω-3 desaturase from Pythium irregulare
# Format: cell-based, S. cerevisiae
# Conditions: yeast transformant pYES2-O3; 100 μM exogenously supplied fatty acid substrate, 16° C., 4 days; GC of fatty acid methyl esters
# Procedure: The plasmids containing the full length O3 genes in the yeast expression vector pYES2.1/V5-His-TOPO were transformed into yeast S. cerevisiae. The positive transformants were selected for uracil auxotrophy on DOB-U agar plates. To characterize the ω-3 desaturase enzyme activity, positive clones and the control (yeast with pYES2.1 vector) were cultured overnight in DOB-U liquid medium at 28° C. and then grown in induction medium (DOB-U+Gal+Raf) containing 100 μM of various exogenously supplied fatty acid substrates at 16° C. for 4 days. The whole yeast cells expressing Pythium ω-3 genes were harvested by centrifugation and washed twice with distilled water. Then the yeast cells were directly transmethylated with methanolic HCl (3N) at 80° C. for 1 hour. The resultant methyl esters were extracted with hexane and analyzed by gas chromatography (GC). GC was carried out as described in WO 2005/083053.
smiles,measurement,value
"CCCCC/C=C\C/C=C\C/C=C\CCCCC(=O)O [GLA, γ-linolenic acid]",Substrate (%),22.79%
"CCCCC/C=C\C/C=C\C/C=C\CCCCCCC(=O)O [DGLA, dihomo-γ-linolenic acid]",Substrate (%),17.78%
"CCCCC/C=C\C/C=C\CCCCCCCC(=O)O [LA, linoleic acid]",Substrate (%),25.56%
